Experimental data reported in article PMC9418190, “UDP-glucose, cereblon-dependent proinsulin degrader” (Scientific Reports, 2022).
No constants are given. Whether binding was seen depends on the method and setting. In cells and extracts the contact can be indirect. Some results given as binding are weak or reduced against the parent protein; the word gives no strength.

Chains of the proteins cited; added tags and fusions are not shown. Residues count along the entry.
UniProt Q6P5E4, residues 43-1551: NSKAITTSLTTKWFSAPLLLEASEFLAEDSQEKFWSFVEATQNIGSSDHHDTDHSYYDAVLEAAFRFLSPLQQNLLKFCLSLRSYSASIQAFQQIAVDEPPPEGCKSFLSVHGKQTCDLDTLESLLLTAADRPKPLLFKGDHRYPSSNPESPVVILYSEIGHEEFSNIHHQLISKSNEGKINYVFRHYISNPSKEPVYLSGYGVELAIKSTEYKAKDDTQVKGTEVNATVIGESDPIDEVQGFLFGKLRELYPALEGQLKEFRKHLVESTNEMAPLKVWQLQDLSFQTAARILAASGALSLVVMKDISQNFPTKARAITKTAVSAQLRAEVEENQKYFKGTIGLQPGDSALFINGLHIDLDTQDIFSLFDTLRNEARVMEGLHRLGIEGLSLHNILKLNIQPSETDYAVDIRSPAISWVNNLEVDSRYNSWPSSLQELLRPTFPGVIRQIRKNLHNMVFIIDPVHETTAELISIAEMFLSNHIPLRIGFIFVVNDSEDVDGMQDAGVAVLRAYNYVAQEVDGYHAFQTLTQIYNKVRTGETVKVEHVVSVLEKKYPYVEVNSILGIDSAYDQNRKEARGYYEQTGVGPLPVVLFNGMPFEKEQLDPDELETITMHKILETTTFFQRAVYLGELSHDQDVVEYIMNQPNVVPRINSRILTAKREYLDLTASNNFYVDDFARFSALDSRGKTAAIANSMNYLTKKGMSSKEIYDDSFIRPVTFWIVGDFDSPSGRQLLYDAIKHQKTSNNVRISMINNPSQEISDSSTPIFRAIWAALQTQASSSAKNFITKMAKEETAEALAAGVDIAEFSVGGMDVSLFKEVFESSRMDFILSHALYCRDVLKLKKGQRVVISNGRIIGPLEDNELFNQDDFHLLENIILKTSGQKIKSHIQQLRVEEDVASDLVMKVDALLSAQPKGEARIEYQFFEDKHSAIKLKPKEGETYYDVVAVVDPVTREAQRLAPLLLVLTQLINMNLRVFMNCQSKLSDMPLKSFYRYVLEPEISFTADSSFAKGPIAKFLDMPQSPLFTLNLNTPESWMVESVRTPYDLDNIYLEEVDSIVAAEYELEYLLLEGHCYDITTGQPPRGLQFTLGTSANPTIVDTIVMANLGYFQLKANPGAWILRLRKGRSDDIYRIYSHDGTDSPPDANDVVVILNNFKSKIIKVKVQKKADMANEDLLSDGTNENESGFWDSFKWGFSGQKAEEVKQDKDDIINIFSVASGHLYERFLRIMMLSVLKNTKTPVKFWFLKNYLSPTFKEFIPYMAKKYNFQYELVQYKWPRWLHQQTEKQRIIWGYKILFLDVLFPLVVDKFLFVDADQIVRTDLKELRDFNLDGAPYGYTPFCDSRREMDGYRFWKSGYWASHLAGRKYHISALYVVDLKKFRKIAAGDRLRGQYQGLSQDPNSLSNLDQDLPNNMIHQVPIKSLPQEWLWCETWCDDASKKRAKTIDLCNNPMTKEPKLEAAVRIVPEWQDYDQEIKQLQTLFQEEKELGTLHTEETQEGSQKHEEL
UniProt Q9NYU2, residues 43-1555: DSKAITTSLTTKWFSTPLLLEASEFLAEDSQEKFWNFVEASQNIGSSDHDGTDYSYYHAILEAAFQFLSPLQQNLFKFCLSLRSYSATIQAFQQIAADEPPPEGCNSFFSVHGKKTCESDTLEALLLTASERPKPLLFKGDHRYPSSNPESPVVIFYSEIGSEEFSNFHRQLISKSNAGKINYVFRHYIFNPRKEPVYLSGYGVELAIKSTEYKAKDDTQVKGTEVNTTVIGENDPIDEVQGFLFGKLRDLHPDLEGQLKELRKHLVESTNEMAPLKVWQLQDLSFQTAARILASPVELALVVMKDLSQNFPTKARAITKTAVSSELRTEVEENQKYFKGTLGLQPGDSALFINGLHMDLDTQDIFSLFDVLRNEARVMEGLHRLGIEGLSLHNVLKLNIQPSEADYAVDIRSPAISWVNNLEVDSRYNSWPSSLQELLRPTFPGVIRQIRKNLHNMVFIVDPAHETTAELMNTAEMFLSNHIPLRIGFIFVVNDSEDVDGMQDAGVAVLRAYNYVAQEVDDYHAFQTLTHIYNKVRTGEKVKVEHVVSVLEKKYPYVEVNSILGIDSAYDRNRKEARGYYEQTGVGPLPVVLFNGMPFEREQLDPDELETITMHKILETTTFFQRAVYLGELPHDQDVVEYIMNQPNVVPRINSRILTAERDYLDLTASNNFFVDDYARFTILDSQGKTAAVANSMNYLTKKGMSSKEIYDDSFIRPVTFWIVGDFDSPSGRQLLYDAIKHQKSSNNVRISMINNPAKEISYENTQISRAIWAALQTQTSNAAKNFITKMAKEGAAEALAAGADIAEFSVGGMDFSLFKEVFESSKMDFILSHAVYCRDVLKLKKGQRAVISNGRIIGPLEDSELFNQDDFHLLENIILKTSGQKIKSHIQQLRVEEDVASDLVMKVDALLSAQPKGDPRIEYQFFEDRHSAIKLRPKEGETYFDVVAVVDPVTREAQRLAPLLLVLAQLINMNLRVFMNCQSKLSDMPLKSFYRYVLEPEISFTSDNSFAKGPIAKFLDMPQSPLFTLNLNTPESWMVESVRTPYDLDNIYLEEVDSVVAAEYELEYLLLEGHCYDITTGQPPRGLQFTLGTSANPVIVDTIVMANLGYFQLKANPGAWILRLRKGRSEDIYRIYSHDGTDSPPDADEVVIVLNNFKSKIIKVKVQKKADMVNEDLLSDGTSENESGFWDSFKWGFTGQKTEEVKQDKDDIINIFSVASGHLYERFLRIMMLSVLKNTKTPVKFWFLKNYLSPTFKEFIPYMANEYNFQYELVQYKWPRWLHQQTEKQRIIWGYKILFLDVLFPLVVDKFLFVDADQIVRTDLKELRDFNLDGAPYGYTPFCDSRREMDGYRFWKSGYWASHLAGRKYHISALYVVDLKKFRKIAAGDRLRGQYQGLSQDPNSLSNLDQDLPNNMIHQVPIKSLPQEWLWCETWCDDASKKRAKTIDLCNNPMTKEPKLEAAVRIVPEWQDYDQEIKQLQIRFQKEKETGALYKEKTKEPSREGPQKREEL
UniProt Q9DBY1: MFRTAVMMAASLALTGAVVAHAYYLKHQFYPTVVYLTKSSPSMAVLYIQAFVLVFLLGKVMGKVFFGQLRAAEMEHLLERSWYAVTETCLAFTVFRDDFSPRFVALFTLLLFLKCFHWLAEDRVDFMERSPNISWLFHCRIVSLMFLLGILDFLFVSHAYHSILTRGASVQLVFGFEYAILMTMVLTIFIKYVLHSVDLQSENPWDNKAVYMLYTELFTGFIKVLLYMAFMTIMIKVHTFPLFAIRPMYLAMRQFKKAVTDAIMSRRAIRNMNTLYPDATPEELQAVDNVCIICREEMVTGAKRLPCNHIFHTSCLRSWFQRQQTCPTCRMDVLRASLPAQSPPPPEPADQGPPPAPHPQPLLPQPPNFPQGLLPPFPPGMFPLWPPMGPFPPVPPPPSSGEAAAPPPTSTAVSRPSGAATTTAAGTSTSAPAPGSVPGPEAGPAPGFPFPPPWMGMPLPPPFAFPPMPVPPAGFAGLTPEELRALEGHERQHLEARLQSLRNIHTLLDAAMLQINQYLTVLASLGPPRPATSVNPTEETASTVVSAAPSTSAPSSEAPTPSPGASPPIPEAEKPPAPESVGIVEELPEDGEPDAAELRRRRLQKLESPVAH
UniProt Q96SW2: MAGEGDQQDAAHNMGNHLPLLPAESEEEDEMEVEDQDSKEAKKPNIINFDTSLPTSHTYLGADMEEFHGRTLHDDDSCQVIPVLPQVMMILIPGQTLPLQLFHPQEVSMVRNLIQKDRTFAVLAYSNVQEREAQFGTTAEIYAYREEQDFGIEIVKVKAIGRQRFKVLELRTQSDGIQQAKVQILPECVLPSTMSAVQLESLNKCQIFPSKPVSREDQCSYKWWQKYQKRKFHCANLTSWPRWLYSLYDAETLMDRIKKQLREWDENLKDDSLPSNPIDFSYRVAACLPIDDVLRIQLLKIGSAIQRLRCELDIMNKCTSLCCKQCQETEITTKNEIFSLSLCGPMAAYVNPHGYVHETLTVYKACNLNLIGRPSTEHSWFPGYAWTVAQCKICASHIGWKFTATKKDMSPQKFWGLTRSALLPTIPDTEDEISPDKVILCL

What was measured:
[1] = molecular target: UDP-glucose:glycoprotein glucosyltransferase 1 (UGGT1) (mouse (endogenous in NIT-1)) (UniProt Q6P5E4); test: condition: only after administration of 1 mM arginine; co-IP; as a6, after administration of 1 mM arginine: IP of UGGT1, blot for HRD1
[2] = molecular target: UDP-glucose:glycoprotein glucosyltransferase 1 (UGGT1) (mouse (endogenous in NIT-1)) (UniProt Q6P5E4); test: co-IP; NIT1 cells, arginine depleted for 30 min, then 1 mM arginine for 0, 1, 3 and 24 h; lysates IPed with proinsulin or UGGT1 and blotted for DDB1 or HRD1
UGGT1 (in vitro IP-WB) = UGGT1 (in vitro IP-WB) (UniProt Q9NYU2); test: co-IP; in vitro IP-WB of cereblon and UGGT1, without and with UDP-glucose

| binding [1] | binding [2] | binding (UGGT1 (in vitro IP-WB)) | Substance |
| --- | --- | --- | --- |
| no binding | binds | – | HMG-CoA reductase degradation 1 (HRD1) (from UniProt Q9DBY1 1-612) |
| – | – | binds | cereblon (in vitro; CRBN^WT) (from UniProt Q96SW2 1-442) |
